Patent EP0679394B1, “Menatetronome derivative as antiarteriosclerotic agent” (Eisai Co., Ltd., priority 1994, dated 1995)
At least one structure is not confirmed: it was looked up by name or label, or the drawing left a doubt.

System: arteriosclerotic rats
Assay: Effect of vitamin K2 on arteriosclerotic rats (vitamin D2-induced calcification)
Assay type: in vivo
Conditions: groups B and C, vitamin K2 in low and high doses (10 and 100 mg/kg/day i.p.) with vitamin D2
Protocol: Then vitamin D2, vitamin D2 with vitamin K2 (in a low dose), and vitamin D2 with vitamin K2 (in a high dose) were given respectively to the groups A, B and C.
After feeding for five weeks, the urine of each group was sampled for a period of 20 hours and the urinary calcium, phosphorus and creatinine levels were measured.
After feeding for six weeks, the animals of each group were bled to death and the blood, aorta (from the aortic arch to the thoracic aorta) and kidneys were sampled.
The serum was separated from the blood and the serum calcium and phosphorus levels were measured.
The aorta and kidneys were defatted, dehydrated and incinerated and the calcium and phosphorus contents therein were determined.
The calcium concentrations were determined by atomic absorption spectrophotometry. The inorganic phosphorus concentrations were determined by Goldenberg's method. The creatinine concentrations were determined by the enzymatic method.
(The data of each group were compared with those of the control group according to the t-test method.)

With `CC(C)=CCC/C(C)=C/CC/C(C)=C/CC/C(C)=C/CC1=C(C)C(=O)c2ccccc2C1=O` [vitamin K2, 2-Methyl-3-[(2E,6E,10E)-3,7,11,15-tetramethyl-2,6,10,14-hexadecatetraenyl]naphthoquinone] the “increases in the calcium and phosphorus contents in the aorta” value was “suppressed depending on the dose” and the “increases in the calcium and phosphorus contents in the kidneys” value was “suppressed depending on the dose”.
